{"source": "PubChem BioAssay AID504786, Drosophila RNAi Screening Center | 2011", "purpose": "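Knock-downs reducing HIF reporter induction by the iron chelator DFO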 (primary screen)", "system": "Drosophila S2 cells with a stable HIF luciferase reporter", "reagents": "long dsRNA against Drosophila genes, about 0.2 µg dsRNA per well of a 384-well plate", "time to read-out": "three days of knock-down, then 20 h of DFO before reading", "conditions": "desferrioxamine (DFO) at 100 µM, an iron chelator that mimics hypoxia, for 20 h", "measurement": "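HIF reporter luminescence in cells given 100 µM DFO for 20 h, using the mouse ldh-a hypoxia-response element, scored as per-plate z-scores; higher means greater loss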", "direction": "z-score: higher = stronger loss of HIF reporter signal", "note": "The deposit covers about 21,000 reagents; below is an unselected part of those with a known target gene and a result. 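Primary screen; positive scores mean lost reporter signal, so the sign may be inverted from the usual convention.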 Reagents against one gene are numbered here. A plus sign joins genes that one reagent is predicted to hit. Not all columns of the deposit are shown. No sequences are given here."}
{"Target gene": "Zmynd10 (Zinc finger MYND-type containing 10)", "reagent no.": 1, "z-score, replicate 1": -0.3}
{"Target gene": "Mdh1 (retired record)", "reagent no.": 1, "z-score, replicate 1": -0.2}
{"Target gene": "CG14142", "reagent no.": 1, "z-score, replicate 1": -0.2}
{"Target gene": "CG4822", "reagent no.": 1, "z-score, replicate 1": -0.1}
{"Target gene": "Shark (SH2 ankyrin repeat kinase)", "reagent no.": 1, "z-score, replicate 1": -0.2}
{"Target gene": "7B2", "reagent no.": 1, "z-score, replicate 1": -0.3}
{"Target gene": "hoe2 (hoepel2)", "reagent no.": 1, "z-score, replicate 1": -0.4}
{"Target gene": "l(2)k09848 (lethal (2) k09848)", "reagent no.": 1, "z-score, replicate 1": -0.1}
{"Target gene": "CG7695", "reagent no.": 1, "z-score, replicate 1": -0.8}
{"Target gene": "Ho (Heme oxygenase)", "reagent no.": 1, "z-score, replicate 1": -0.4}
{"Target gene": "CG9902", "reagent no.": 1, "z-score, replicate 1": -0.2}
{"Target gene": "maf-S", "reagent no.": 1, "z-score, replicate 1": -0.2}
{"Target gene": "ttv (tout-velu)", "reagent no.": 1, "z-score, replicate 1": -0.3}
{"Target gene": "CG13215", "reagent no.": 1, "z-score, replicate 1": -0.1}
{"Target gene": "l(3)L1231 (lethal (3) L1231)", "reagent no.": 1, "z-score, replicate 1": -0.2}
{"Target gene": "CG42399", "reagent no.": 1, "z-score, replicate 1": -0.3}
{"Target gene": "CG42399", "reagent no.": 2, "z-score, replicate 1": -0.3}
{"Target gene": "Ugt36A1 + CG15418", "reagent no.": 1, "z-score, replicate 1": 0}
{"Target gene": "chrb (charybde)", "reagent no.": 1, "z-score, replicate 1": -0.4}
{"Target gene": "Ank2 (Ankyrin 2)", "reagent no.": 1, "z-score, replicate 1": 0}
{"Target gene": "Ank2 (Ankyrin 2)", "reagent no.": 2, "z-score, replicate 1": -0.3}
{"Target gene": "Ank2 (Ankyrin 2)", "reagent no.": 3, "z-score, replicate 1": -0.1}
{"Target gene": "Ank2 (Ankyrin 2)", "reagent no.": 4, "z-score, replicate 1": -0.2}
{"Target gene": "CG4461", "reagent no.": 1, "z-score, replicate 1": -0.1}
{"Target gene": "CG34028", "reagent no.": 1, "z-score, replicate 1": -0.2}
{"Target gene": "CG1354", "reagent no.": 1, "z-score, replicate 1": -0.3}
{"Target gene": "c(3)G (crossover suppressor on 3 of Gowen)", "reagent no.": 1, "z-score, replicate 1": -0.1}
{"Target gene": "CG11309", "reagent no.": 1, "z-score, replicate 1": -0.2}
{"Target gene": "Gmd (GDP-mannose 4,6-dehydratase)", "reagent no.": 1, "z-score, replicate 1": -0.3}
{"Target gene": "Usp14 (Ubiquitin specific protease 14)", "reagent no.": 1, "z-score, replicate 1": -0.3}
{"Target gene": "Nep1 (Neprilysin 1)", "reagent no.": 1, "z-score, replicate 1": -0.3}
{"Target gene": "Nep1 (Neprilysin 1)", "reagent no.": 2, "z-score, replicate 1": 2.7}
{"Target gene": "CheA86a (Chemosensory protein A 86a)", "reagent no.": 1, "z-score, replicate 1": -0.3}
{"Target gene": "mei-9 (meiotic 9)", "reagent no.": 1, "z-score, replicate 1": -0.2}
{"Target gene": "sba (six-banded)", "reagent no.": 1, "z-score, replicate 1": -0.1}
{"Target gene": "sba (six-banded)", "reagent no.": 2, "z-score, replicate 1": 0.1}
{"Target gene": "CG4712", "reagent no.": 1, "z-score, replicate 1": -0.1}
{"Target gene": "Ttc26 (Tetratricopeptide repeat domain 26)", "reagent no.": 1, "z-score, replicate 1": -1}
{"Target gene": "TMEM216 + CG11760", "reagent no.": 1, "z-score, replicate 1": -0.3}
{"Target gene": "CG3246", "reagent no.": 1, "z-score, replicate 1": -0.1}

Ordered by “z-score, replicate 1” (ascending): some entries from above.
{"Target gene": "Ank2 (Ankyrin 2)", "reagent no.": 2, "z-score, replicate 1": -0.3}
{"Target gene": "Ank2 (Ankyrin 2)", "reagent no.": 4, "z-score, replicate 1": -0.2}
{"Target gene": "Ank2 (Ankyrin 2)", "reagent no.": 3, "z-score, replicate 1": -0.1}
{"Target gene": "CG4461", "reagent no.": 1, "z-score, replicate 1": -0.1}
